Reference: patent EP4834898A1, “TDG INHIBITOR COMPOUND AND USE THEREOF” (dated 2026)
The match of structure and compound is tentative.

Chains of the proteins cited; added tags and fusions are not shown.
UniProt Q13569, whole entry: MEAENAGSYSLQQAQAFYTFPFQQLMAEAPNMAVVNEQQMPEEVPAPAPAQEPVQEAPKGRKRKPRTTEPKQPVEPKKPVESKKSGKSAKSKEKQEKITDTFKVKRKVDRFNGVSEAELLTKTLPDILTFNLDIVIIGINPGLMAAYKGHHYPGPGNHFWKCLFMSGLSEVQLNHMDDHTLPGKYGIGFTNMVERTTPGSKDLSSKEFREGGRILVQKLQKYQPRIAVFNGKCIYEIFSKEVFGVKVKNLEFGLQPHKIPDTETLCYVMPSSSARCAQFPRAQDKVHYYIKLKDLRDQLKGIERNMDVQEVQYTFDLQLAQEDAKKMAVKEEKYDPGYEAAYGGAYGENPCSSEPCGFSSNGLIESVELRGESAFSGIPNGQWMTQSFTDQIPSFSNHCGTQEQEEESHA

Biological target: His-tagged TDG protein (Homo sapiens, UniProt Q13569)
Assay: HTRF assay: inhibition of the binding of TDG to double-stranded DNA substrates
Details: read-out: Activity, IC50 class, TDG 40 nM, Biotin-labeled dsDNA substrate 40 nM, 4PL fit
Procedure: HTRF (Homogeneous Time-Resolved Fluorescence) technology was used to evaluate the inhibitory effects of the compounds on the binding of TDG to double-stranded DNA substrates.
Microplate reader (manufacturer: Perkin Elmer; model: Envision multilabel reader equipped with HTRF module) and Echo 550 (manufacturer: Labcyte; model: Echo 550).
• 1. Preparation of compound concentration gradient: Test compounds were prepared at a starting concentration of 250 µM, with 3-fold serial dilution, 10 concentrations, and duplicate wells. In a 384-well plate, the compounds were gradient-diluted to 40× final concentration solutions at 10 different concentrations. Then 500 nl was transferred to a 384-well reaction plate using Echo 550 for later use. To the negative control wells and positive control wells, 500 nl of 100% DMSO or Biotin-unlabeled dsDNA substrate was added, respectively. • 2. Add 1.5 µl/well of Epigeneous Binding Domain diluent buffer to the 384-well plate, and centrifuge at 1000 rpm for 1 min. • 3. Add 4 µl of 5× final concentration of His-tagged TDG protein (final concentration 40 nM, diluted with Epigeneous Binding Domain diluent buffer) to the 384-well plate, centrifuge at 1000 rpm for 1 min, and incubate at room temperature for 10 min. • 4. […]
Incubate overnight at 4 °C, and read HTRF on the microplate reader. […]

SMILES	IC50
O=C1CCC(c2c(Br)cc(O)cc2Br)O1 (centres unmarked)	> 50 µM
CC(=O)Oc1cc(Cl)c(C2CCC(=O)O2)c2ccccc12 (centres unmarked)	< 0.5 µM
